Assay results as given in patent EP4834881A1, “QUINOLONE COMPOUNDS AND USE THEREOF” (dated 2026).
The match of structure and compound is tentative. One block for each compound: values may come before it.

By UniProt entry, the sequences of proteins in these tests, tags left out.
UniProt Q96LB1, whole entry: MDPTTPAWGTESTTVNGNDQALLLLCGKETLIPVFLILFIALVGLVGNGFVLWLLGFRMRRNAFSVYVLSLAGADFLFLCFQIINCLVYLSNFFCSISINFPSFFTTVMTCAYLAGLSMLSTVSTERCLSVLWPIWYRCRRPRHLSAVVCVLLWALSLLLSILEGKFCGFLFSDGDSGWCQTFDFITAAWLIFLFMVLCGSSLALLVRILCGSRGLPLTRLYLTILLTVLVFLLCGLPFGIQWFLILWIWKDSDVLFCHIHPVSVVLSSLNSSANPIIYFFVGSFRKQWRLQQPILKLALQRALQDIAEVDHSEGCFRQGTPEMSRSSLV

Assays:
human MRGPRX2 = human MRGPRX2 (Homo sapiens, UniProt Q96LB1); assay: In vitro target binding assay: BRET between MRGPRX2-Nluc and Venus-β-arrestin1 in transfected HEK-293T cells, antagonist mode against agonist R-ZINC-3573 (EC80); conditions: antagonism of agonist R-ZINC-3573 at EC80, net BRET
From the text: Bioluminescence Resonance Energy Transfer (BRET) is an important biophysical technique for monitoring molecular interactions, and has been widely used to study protein-protein interactions in living cells. This technique requires the relevant proteins to be linked to an energy donor (such as luciferase) and an acceptor (such as a fluorescent protein). When a relevant drug molecule interacts with the protein, the protein structure alters, causing a change in the distance between the energy donor and the energy acceptor. The luminescence energy induced by the chemical reaction is transferred to the corresponding acceptor, resulting in increased acceptor emission, and generating a BRET signal. In this work, a DNA-synthesized target human MRGPRX2 and a donor luciferase Nluc (NanoLuc®Promega) (Supplier: Beijing Tsingke, Lot No.: SZ0171228-1), as well as an acceptor fluorescent protein Venus and the relevant test protein, namely human β-arrestin1 (ARRB1) (Supplier: Guangzhou Dahong Biotechnology, Lot No. HY22694-4396), were utilized, and were inserted into the eukaryotic expression vector plasmid pcDNA3.1(+) (Supplier: Qiyun Bio, Lot No.: QY2310) as fusion genes via a Linker sequence (GGSG). The cell line selected for the experiment was human embryonic kidney cells HEK-293T. The human embryonic kidney cell line HEK-293T was routinely cultured in 10 cm cell culture dishes using complete culture medium consisting of high-glucose DMEM medium supplemented with 10% (V/V) fetal bovine serum. Cells were seeded at 2×10^6 cells/10 cm dish on the first day of culture, and passaged every 72 h with the same number of cells. One day prior to transfection, cells were resuspended, counted, and seeded at a density of 2×10^6 cells/6 cm dish or 4×10^6 cells/10 cm dish. Transfection was carried out 16-24 h after seeding. Plasmids constructed with the fusion protein gene were transfected into the expression cell line, and the transfected cells were cultured under appropriate conditions for a period of time to allow sufficient expression of the fusion proteins. Transfection was performed by encapsulating plasmid DNA with PEI reagent, and the encapsulation process should to be carried out in Opti-MEM medium. The ratio of plasmid, PEI (Supplier: Yeasen Biotechnology, Lot No.: WP5430010), and Opti-MEM (Supplier: Gibco, Lot No.: 2883564) was 1:4:14 (W: W: V). The encapsulated plasmid was added to an appropriate amount of complete culture medium, amd gently mixed, which was then used to replace the existing culture medium of the previously plated cells. Cells were harvested 24 h after transfection. Subsequently, cells were resuspended using HBSS (Source: Biosharp, Lot No.: 24179687) and counted with a cell counter. The cells were diluted to a density of (3~5) ×10^5 cells/mL, and then seeded into a flat-bottom white 96-well microplate at 100 µ L/well, resulting in (3~5) ×10^4 cells per well. In each well, 10 µ L of antagonist compounds diluted with HBSS a different concentrations were added firstly, then the agonist compound at a specific concentration (EC80) was added. After reacting for 2 min, the substrate Furimazine (Supplier: TargetMol, Lot No.: 362434) at a final concentration of 10 µM was added. After reacting for another 2 min, the 96-well plate was placed in a PHERAstar FSX microplate reader (Supplier: BMG Labtech) to simultaneously measure the readings at wavelengths of 440 nm and 530 nm. Based on the fluorescence readings at 440 nm and 530 nm, the Ratio and net BRET were calculated. Ratio = Em530 nm / Em440 nm, and net BRET = Ratio co-transfection - Ratio single-transfection. The calculated net BRET values were inputted into GraphPad Prism 9, and curve fitting via nonlinear regression (four-parameter equation) and IC50 calculation were performed.

BALB/c mice [1] = assay: Atopic dermatitis model: MC903 (calcipotriol) on right ear, ear thickness; conditions: 50 mg/kg BID p.o., mean ± SEM
Method: (§1) Experimental animals: BALB/c mice, from Guangdong Vital River Laboratory Animal Technology Co., Ltd.
MC903 (calcipotriol) (Supplier: TargetMol, Lot No.: 235760) was applied to the right ear of mice, once a day, for 14 consecutive days.
The animals were randomly divided into 6 groups before induction on D1. The model control group was administered with vehicle alone under the same conditions. Administration was carried out according to the following groups:
During the experiment period, the thickness of the right ear of the mice was measured. […] The data are presented as mean ± standard error of the mean (SEM).

BALB/c mice [2] = assay: Psoriasis model: imiquimod cream on mouse back, PASI score; conditions: 4mg/g Topical application, once daily, mean ± SEM
Method: as §1
The clinical severity of psoriasis was assessed using the Psoriasis Area and Severity Index (PASI) score. The PASI scoring criteria for mice are as follows:
The hair on the back of the mice was shaved, and the application area was marked with a marker pen. Imiquimod cream (Supplier: Sichuan Mingxin Pharmaceutical, Lot No.: 24054002) was applied to the back of the mice for several consecutive days to establish a mouse model of psoriasis. Before daily application, the residual cream was removed using pure water.
Administration was initiated on the day of grouping, which was designated as D1, and was performed once daily for 8 consecutive days. The normal control group and the model control group were administered with vehicle alone under the same conditions. Mice were scored according to the PASI (Psoriasis area and severity index). The administration regimen for the mouse psoriasis model was as follows: […]

BALB/c mice [3] = assay: Urticaria model: anti-dinitrophenyl antibody sensitization and dinitrofluorobenzene challenge; number of wheals, serum IgE and histamine (ELISA); conditions: once daily, 6 days, mean ± SEM; for Number of Wheals: end of experiment; for Histamine Level / IgE Level: serum
Method: Experimental animals: BALB/c mice, from Hangzhou Ziyuan Laboratory Animal Technology Co., Ltd
After random grouping, the back of the mice was shaved in advance, with a shaving area of about 2 cm × 2 cm. Except for the normal control group, mice in the remaining groups were sensitized via tail vein injection of an anti-dinitrophenyl monoclonal antibody (Supplier: Sigma-Aldrich, Lot No.: 0000241402) (0.2 ng/mL) at a dose of 0.5 mL per mouse. After 24 h, the mice in each sensitization modeling group were challenged by topically applying 50 µL of 0.15% dinitrofluorobenzene (Supplier: Shanghai Macklin, Lot No.: C14969320) to the dorsal side of both ears. The normal control group was injected and topically applied with normal saline under the same conditions.
The administration regimen for the mouse urticaria model was as follows (the normal control group and the model control group were administered with vehicle alone under the same conditions) (once daily):
Mouse IgE ELISA detection kit: purchased from Shanghai Enzyme-linked Biotechnology Co., Ltd., Lot No.: ml1037602.
Mouse histamine ELISA detection kit: purchased from Shanghai Enzyme-linked Biotechnology Co., Ltd., Lot No.: ml1001877.
Microplate reader, manufacturer BioTek, model: Epoch.

BALB/c mice [4] = assay: Allergic rhinitis model: OVA sensitization and nasal challenge, number of sneezes; conditions: 5mg/kg p.o. once daily, within 10 min after the nasal challenge
Method: as §1
Modeling was initiated on the day of grouping, which was designated as M1. Except for the normal group, mice in all modeling groups were intraperitoneally injected with a sensitization solution of (250 µg OVA (Ovalbumin) (Supplier: Shanghai Macklin, Lot No.: C16255388) mixed with 5 mg aluminum hydroxide/mL) per mouse, while the normal control group was given an equal volume of sterile PBS solution. The injection cycle was M1, M7, and M14. Starting from M21, challenge was carried out by nasal instillation once daily for 7 consecutive days. The challenge solution was a 50 mg/mL OVA solution, and a volume of 10 µL was instilled into each nostril per time. The normal control group was not subjected to nasal instillation.
Administration was initiated on the day of the challenge by nasal instillation, which was designated as D1, and was performed once daily for 7 consecutive days. The normal control group and the model control group were administered with vehicle alone under the same conditions:
The number of sneezes in each group was recorded within 10 min after the nasal challenge every day during the administration period.

BALB/c mice [5] = assay: Rosacea model: intradermal LL-37 in mice, erythema score; conditions: once daily, score 0-4, mean ± SEM
From the text: as §1
The hair on the back of the mice was shaved, and the modeling area was marked on the back skin, avoiding positions with abundant subcutaneous blood vessels. LL-37 (an antimicrobial peptide used for rosacea modeling) (Supplier: QYAOBlO (ChinaPeptides), Lot No.: 20240319) solution was drawn with a microsyringe and injected intradermally along the intradermal path. The needle was withdrawn slowly after injection. The modeling continued for 5 to 7 days, with injections administered twice a day.
Administration was initiated on the day of grouping, which was designated as D1, and was performed once daily for 7 consecutive days. The normal control group and the model control group were administered with vehicle alone under the same conditions. The changes in skin lesions at the injection site on the back of mice in each group were observed, and scores ranging from 0 to 4 were assigned based on the degree of erythema, wherein, a score of 0 indicates no erythema, a score of 1 indicates barely visible erythema, a score of 2 indicates pale erythema with blurred boundaries, a score of 3 indicates erythema with clear boundaries, and a score of 4 indicates dark erythema with clear boundaries. The administration regimen for the mouse rosacea model was as follows: […]

- IC50 (human MRGPRX2): 10 to 80 µM
Compound: CCCNS(=O)(=O)c1ccc(-c2cc3c(cc2F)c(=O)c(C(=O)O)cn3C2CC2)cc1F
- Right Ear Thickness of Mice (BALB/c mice [1]; D2): 0.19±0.05 mm
- Right Ear Thickness of Mice (BALB/c mice [1]; D4): 0.27 ± 0.04 mm
- Right Ear Thickness of Mice (BALB/c mice [1]; D6): 0.34 ± 0.02 mm
- Right Ear Thickness of Mice (BALB/c mice [1]; D8): 0.44 ± 0.04 mm
- Right Ear Thickness of Mice (BALB/c mice [1]; D10): 0.50 ± 0.04 mm
- Right Ear Thickness of Mice (BALB/c mice [1]; D12): 0.52 ± 0.04 mm
- Right Ear Thickness of Mice (BALB/c mice [1]; D14): 0.54 ± 0.04 mm

- IC50 (human MRGPRX2): 1 to 10 µM
Compound: O=C(O)c1cn(C2CC2)c2cc(-c3ccc(S(=O)(=O)NCCCC(F)(F)F)cc3)c(F)cc2c1=O
- PASI score (BALB/c mice [2]; D1): 0
- PASI score (BALB/c mice [2]; D2): 0.6±0.3
- PASI score (BALB/c mice [2]; D3): 1.7±0.3
- PASI score (BALB/c mice [2]; D4): 3.1±0.3
- PASI score (BALB/c mice [2]; D5): 3.8±0.3
- PASI score (BALB/c mice [2]; D6): 4.6 ·
- PASI score (BALB/c mice [2]; D7): 5.5 ·
- PASI score (BALB/c mice [2]; D8): 6.6 ·
- Number of Wheals (BALB/c mice [3]; 4mg/kg Topical application): 11.4 ·
- Number of Wheals (BALB/c mice [3]; 25mg/kg Oral): 10 ·
- Histamine Level (BALB/c mice [3]; 4mg/kg Topical application): 7.4 ± 1.0 ng/mL
- IgE Level (BALB/c mice [3]; 4mg/kg Topical application): 15.2 ± 2.0 µg/mL
- Histamine Level (BALB/c mice [3]; 25mg/kg Oral): 5.8 ± 1.0 ng/mL
- IgE Level (BALB/c mice [3]; 25mg/kg Oral): 11.5 ± 2.0 µg/mL
- number of sneezes (BALB/c mice [4]; D1): 2.8 number of sneezes/mouse
- number of sneezes (BALB/c mice [4]; D2): 3.1 number of sneezes/mouse
- number of sneezes (BALB/c mice [4]; D3): 10.2 number of sneezes/mouse
- number of sneezes (BALB/c mice [4]; D4): 14.9 number of sneezes/mouse
- number of sneezes (BALB/c mice [4]; D5): 10.7 number of sneezes/mouse
- number of sneezes (BALB/c mice [4]; D6): 16.1 number of sneezes/mouse
- number of sneezes (BALB/c mice [4]; D7): 13.4 number of sneezes/mouse

- IC50 (human MRGPRX2): 1 to 10 µM
Compound: CCCNC(=O)c1ccc(-c2c(F)cc3c(=O)c(C(=O)O)cn(C4CC4)c3c2OC)cc1
- erythema score (BALB/c mice [5]; D1, 4mg/g Topical application): 1.6±0.3
- erythema score (BALB/c mice [5]; D1, 40mg/kg Oral): 1.6±0.2
- erythema score (BALB/c mice [5]; D2, 4mg/g Topical application): 2.6±0.2
- erythema score (BALB/c mice [5]; D2, 40mg/kg Oral): 2.2 ·
- erythema score (BALB/c mice [5]; D3, 4mg/g Topical application): 2.6 ·
- erythema score (BALB/c mice [5]; D3, 40mg/kg Oral): 2.2 ·
- erythema score (BALB/c mice [5]; D4, 4mg/g Topical application): 2.3 ·
- erythema score (BALB/c mice [5]; D5, 4mg/g Topical application): 1.8 ·
- erythema score (BALB/c mice [5]; D5, 40mg/kg Oral): 1.7 ·
- erythema score (BALB/c mice [5]; D6, 4mg/g Topical application): 1.5±0.3
- erythema score (BALB/c mice [5]; D6, 40mg/kg Oral): 1.3 ·
- erythema score (BALB/c mice [5]; D7, 4mg/g Topical application): 1.2±0.3
- erythema score (BALB/c mice [5]; D7, 40mg/kg Oral): 1.2±0.2
- Right Ear Thickness of Mice (BALB/c mice [1]; D2): 0.19±0.04 mm
- Right Ear Thickness of Mice (BALB/c mice [1]; D4): 0.28 ± 0.02 mm
- Right Ear Thickness of Mice (BALB/c mice [1]; D6): 0.36 ± 0.04 mm
- Right Ear Thickness of Mice (BALB/c mice [1]; D8): 0.48 ± 0.04 mm
- Right Ear Thickness of Mice (BALB/c mice [1]; D10): 0.56 ± 0.04 mm
- Right Ear Thickness of Mice (BALB/c mice [1]; D12): 0.52 ± 0.04 mm
- Right Ear Thickness of Mice (BALB/c mice [1]; D14): 0.58 ± 0.04 mm
